# Experimental data from PubChem BioAssay AID493014 (National Center for Advancing Translational Sciences (NCATS), 2011).
# The list shows a part of the results. Shown are side measurements of this screen, not its main read-out; they come without a call. Compounds called inactive in the main read-out are mostly missing here. The note in brackets gives the kind of curve behind each potency; many fits are weak.
# Assay: qHTS Assay to Find Inhibitors of Chronic Active B-Cell Receptor Signaling
# Settings: ABC-DLBCL IkBa-CBG/CBR reporter, luminescence ratio (green luciferase fused to IkBa over red control in TMD8 lymphoma cells), 4 h
# Outline: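 Doxycycline induced both beetle luciferases in TMD8 lymphoma cells; IKK-driven degradation limits the IkappaBalpha-fused green signal, while red luminescence normalises for cell number and nonspecific effects. Compounds tested up to 46 uM, 4 hrs.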
# [1] = measured here: CBR red luminescence, cell number
# [2] = measured here: IkBa-CBG green luminescence
SMILES,AC50 [1],AC50 [2]
CCCCOC(=O)Nc1cc(C)c(Cl)cc1OC,"23.1 µM [rising, single point]",–
Cc1nn(C)c(C(=O)Nc2ccc(Br)cc2F)c1Br,"29.1 µM [rising, single point]",–
CC(C)CCNC(=O)Cn1c(=O)oc2cc(S(=O)(=O)N3CCc4ccccc43)ccc21,"17.8 µM [falling, single point]",–
N#C/C(=C\c1cccc([N+](=O)[O-])c1)c1nnc2n1CCCCC2,"10.3 µM [falling, partial curve]",–
N#Cc1c(-c2ccc(F)cc2)noc1N,"16.4 µM [falling, single point]",–
O=S(=O)(c1cccc2nonc12)N1CCN(c2ccc(F)cc2)CC1,"15.8 µM [rising, single point]",–
CCOc1cc(S(=O)(=O)n2ccnc2C(C)C)ccc1Cl,"11.2 µM [rising, partial curve, poor fit]",–
Cc1nnc2sc(-c3cccc4ccccc34)nn12,"12.6 µM [rising, single point]",–
Cc1cc(C)cc(OCC(=O)Nc2cccc(C(=O)O)c2)c1,"2.31 µM [falling, partial curve]",–
CCc1cc2c(=O)c(-c3nc4ccccc4[nH]3)coc2c(CN2CCCCC2)c1O,"3.98 µM [falling, partial curve, poor fit]",–
COc1ccc(CC(=O)Nc2ccc3c(c2)CCC3)cc1OC,"29.1 µM [falling, single point]",–
COc1ccc(C(C(=O)NC2CCCCC2)N(C(=O)CCl)c2cccc(Cl)c2)cc1 (stereo not drawn),"3.66 µM [falling, full curve, poor fit]",–
Cc1ccc(C(=O)C[n+]2ccc3ccccc3c2)cc1,"2.51 µM [rising, full curve, poor fit]",–
O=C(Nc1cccc(O)c1)c1cccc(C(=O)Nc2cccc(O)c2)c1,"35.5 µM [falling, single point]",–
O=C1C=CC(O)(c2cc(=O)c3c(O)cc(O)cc3o2)C=C1,"5.8 µM [falling, full curve]",–
O=C(CSc1nnnn1Cc1ccccc1)NCCc1ccccc1,"20.6 µM [rising, single point]","6.51 µM [falling, partial curve, poor fit]"
CCCCN([C@H](CO)C(C)C)S(=O)(=O)c1ccccc1Br,"29.1 µM [rising, single point]",–
Cc1cc(C)c(NC(=S)N(CCN(C)C)Cc2cccs2)c(C)c1,"4.47 µM [falling, partial curve, poor fit]",–
CCc1c(C)n([O-])c2c([n+]1=O)CCC2,"1.46 µM [falling, partial curve, poor fit]",–
Cc1cc(C(=O)N/N=C/c2ccc(C)s2)n[nH]1,"20 µM [falling, single point]",–
CC(=O)Nc1ccc(C(=O)CSc2nc3ccccc3n2CC(=O)N2CCCC2)cc1,"7.08 µM [rising, full curve, poor fit]",–

# Compounds listed so far that contain a cyano group (2):
SMILES,AC50 [1],AC50 [2]
N#C/C(=C\c1cccc([N+](=O)[O-])c1)c1nnc2n1CCCCC2,"10.3 µM [falling, partial curve]",–
N#Cc1c(-c2ccc(F)cc2)noc1N,"16.4 µM [falling, single point]",–

# (listing goes on)

SMILES,AC50 [1],AC50 [2]
CCN(CC(=O)NCc1ccc(Cl)cc1)C(=O)C(C)Sc1ccccc1 (stereo not drawn),"7.08 µM [falling, partial curve]",–
CNc1ccc(Br)cc(C(=O)/C=C/c2ccc3c(c2)OCO3)c1=O,"8.91 µM [falling, partial curve]",–
O=c1c2ccccc2nc2ccc(NCc3ccco3)nn12,"3.55 µM [falling, full curve]",–
c1ccc(-c2nc(N3CCCCC3)nc3ccccc23)cc1,"6.51 µM [rising, single point]",–
c1ccc(CSc2nnc(-c3c[nH]c4ccccc34)o2)cc1,"22.4 µM [rising, single point]","25.1 µM [falling, partial curve, poor fit]"
S=c1[nH]nc(CNc2ccc(Cl)cc2)n1Cc1ccccc1,"12.6 µM [falling, partial curve, poor fit]",–
CCc1ccc2[nH]c(=O)c(CN(CCCN3CCOCC3)C(=O)Nc3ccc(Cl)cc3)cc2c1,"35.5 µM [rising, single point]",–
O=C(c1ccco1)[C@@H]1[C@@H]2C(=O)N(c3ccc(F)cc3)C(=O)[C@@H]2[C@H]2C=Cc3ccccc3N21,"7.31 µM [falling, partial curve]",–
Cc1nnc(-c2cccc(Br)c2)c2cn(-c3ccccc3)nc12,"4.47 µM [falling, partial curve, poor fit]",–
O=C(NC(Cc1ccccc1)c1nc2ccccc2[nH]1)c1ccc(Cl)c([N+](=O)[O-])c1 (stereo not drawn),"29.1 µM [falling, single point]",–
O=C(C1CCCN(c2ncnc3c2nc2n3CCCCC2)C1)N1CCN(c2cccc(Cl)c2)CC1 (stereo not drawn),"35.5 µM [falling, single point]",–
COc1ccc(-c2cc(C(=O)N3CCCCCC3)no2)cc1OC,"0.708 µM [rising, full curve]",–
COc1ccc(C[C@H]2CN3C(=NC[C@@H]3Cc3ccc(O)cc3)N2CCNC(=O)c2ccc(C)c(Br)c2)cc1,"25.1 µM [falling, single point]",–
COCc1cc(=O)n2c(-c3ccccc3OC)n[nH]c2n1,"10 µM [falling, partial curve, poor fit]",–
Cc1ccc(NC(=O)c2ccc(=O)n(CC(=O)Nc3cccc(C)c3)n2)cc1,"20 µM [falling, single point]",–
C/C(=N\NC(=O)c1cc(-c2ccncc2)nc2ccccc12)c1ccc(OC(F)F)cc1,–,"22.4 µM [falling, single point]"
COC(=O)/C(=C\c1c[nH]c2ccccc12)NC(C)=O,"3.98 µM [rising, partial curve, poor fit]",–
Cn1cc(CNC(=O)c2sc3cccc(Cl)c3c2Cl)cn1,"6.51 µM [rising, single point]",–
COc1cccc(NC(=O)c2ccc(NS(=O)(=O)c3cccs3)cc2)c1,"9.2 µM [falling, partial curve]",–
COc1ccc(C(=O)Nc2cc(OC)ccc2OC)cc1,"3.55 µM [falling, single point]",–
